For the assay, the target named is T1, GFP-tagged VISTA (V-domain Ig suppressor of T cell activation) (UniProt Q9H7M9).
T1 sequence: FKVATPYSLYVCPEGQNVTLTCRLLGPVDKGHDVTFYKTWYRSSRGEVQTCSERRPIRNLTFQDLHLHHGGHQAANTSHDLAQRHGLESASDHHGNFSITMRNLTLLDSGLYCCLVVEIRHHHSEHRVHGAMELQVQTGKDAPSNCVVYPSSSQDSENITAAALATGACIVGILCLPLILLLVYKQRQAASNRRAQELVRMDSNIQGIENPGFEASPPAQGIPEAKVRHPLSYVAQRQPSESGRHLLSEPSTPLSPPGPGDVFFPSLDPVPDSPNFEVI
The assay is described as follows: affinity purification with mass spectrometry; lysate of HL60 cells expressing VISTA-GFP (150 mM NaCl, 50 mM Tris pH 7.2, 1% NP-40, 0.1% SDS), pre-cleared, GFP-beads 1 h at 4 °C, washed three times; mass spectrometry; proteins found exclusively with VISTA-GFP.

The chains behind the UniProt entries cited, without tags or fusion partners. Residues count along the entry.
UniProt P01903, residues 26-254: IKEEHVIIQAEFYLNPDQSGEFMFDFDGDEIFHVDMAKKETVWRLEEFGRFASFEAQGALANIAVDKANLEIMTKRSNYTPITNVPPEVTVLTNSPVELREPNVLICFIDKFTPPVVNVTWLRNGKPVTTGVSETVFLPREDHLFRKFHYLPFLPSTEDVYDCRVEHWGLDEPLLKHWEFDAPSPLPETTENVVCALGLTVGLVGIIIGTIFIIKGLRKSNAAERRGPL

No constants are given. Whether binding was seen depends on the method and setting. Binding seen in cells or lysates may run through a third protein. These calls come from enrichment with a bait or labelling near it, and not all partners need be listed. Tags and fused reporters may be left off the sequences shown.

As for HLA-B (from UniProt P01889 25-362), the binding result was “binds”. With HLA-DQA (human (endogenous in HL60)) the entry was “binds”. Then HLA-DRA (from UniProt P01903 26-254), with “binds”. Then HLA-DRB (human (endogenous in HL60)), with “binds”.

The values above are taken from paper PMC10979580.
